Some of the results follow. The data scatter; read single values as rough.
compound: ClCC(=O)N[C@H]1CCCc2ccccc12; experiment: log2 mean competition ratio of IA-DTB cysteine labelling (DMSO/compound) (log2 ratio); higher = stronger cysteine engagement by compound; conditions: 50 µM; treatment time: 4 h; cell line lysate: HEK293T
Procedure: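 IA-DTB competitive cysteine chemoproteomics in HEK293T RIPA lysate. Lysates were treated with compound 29 or 30 at 50 or 200 µM for 4 h, then IA-DTB (500 µM, 1 h), trypsin-digested, NeutrAvidin-enriched and analysed by diaPASEF. Competition ratio = intensity DMSO / intensity compound (n=4 treated, n=64 DMSO); binding: mean log2 CR ≥ 1 and p ≤ 0.05 plus QC filters. Target is the cysteine site.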

The chains behind the UniProt entries cited, without tags or fusion partners. Where a name states a change or a piece, a line headed by the entry shows the natural chain unless it says otherwise. Residues count along the entry.
UniProt Q9Y6D5: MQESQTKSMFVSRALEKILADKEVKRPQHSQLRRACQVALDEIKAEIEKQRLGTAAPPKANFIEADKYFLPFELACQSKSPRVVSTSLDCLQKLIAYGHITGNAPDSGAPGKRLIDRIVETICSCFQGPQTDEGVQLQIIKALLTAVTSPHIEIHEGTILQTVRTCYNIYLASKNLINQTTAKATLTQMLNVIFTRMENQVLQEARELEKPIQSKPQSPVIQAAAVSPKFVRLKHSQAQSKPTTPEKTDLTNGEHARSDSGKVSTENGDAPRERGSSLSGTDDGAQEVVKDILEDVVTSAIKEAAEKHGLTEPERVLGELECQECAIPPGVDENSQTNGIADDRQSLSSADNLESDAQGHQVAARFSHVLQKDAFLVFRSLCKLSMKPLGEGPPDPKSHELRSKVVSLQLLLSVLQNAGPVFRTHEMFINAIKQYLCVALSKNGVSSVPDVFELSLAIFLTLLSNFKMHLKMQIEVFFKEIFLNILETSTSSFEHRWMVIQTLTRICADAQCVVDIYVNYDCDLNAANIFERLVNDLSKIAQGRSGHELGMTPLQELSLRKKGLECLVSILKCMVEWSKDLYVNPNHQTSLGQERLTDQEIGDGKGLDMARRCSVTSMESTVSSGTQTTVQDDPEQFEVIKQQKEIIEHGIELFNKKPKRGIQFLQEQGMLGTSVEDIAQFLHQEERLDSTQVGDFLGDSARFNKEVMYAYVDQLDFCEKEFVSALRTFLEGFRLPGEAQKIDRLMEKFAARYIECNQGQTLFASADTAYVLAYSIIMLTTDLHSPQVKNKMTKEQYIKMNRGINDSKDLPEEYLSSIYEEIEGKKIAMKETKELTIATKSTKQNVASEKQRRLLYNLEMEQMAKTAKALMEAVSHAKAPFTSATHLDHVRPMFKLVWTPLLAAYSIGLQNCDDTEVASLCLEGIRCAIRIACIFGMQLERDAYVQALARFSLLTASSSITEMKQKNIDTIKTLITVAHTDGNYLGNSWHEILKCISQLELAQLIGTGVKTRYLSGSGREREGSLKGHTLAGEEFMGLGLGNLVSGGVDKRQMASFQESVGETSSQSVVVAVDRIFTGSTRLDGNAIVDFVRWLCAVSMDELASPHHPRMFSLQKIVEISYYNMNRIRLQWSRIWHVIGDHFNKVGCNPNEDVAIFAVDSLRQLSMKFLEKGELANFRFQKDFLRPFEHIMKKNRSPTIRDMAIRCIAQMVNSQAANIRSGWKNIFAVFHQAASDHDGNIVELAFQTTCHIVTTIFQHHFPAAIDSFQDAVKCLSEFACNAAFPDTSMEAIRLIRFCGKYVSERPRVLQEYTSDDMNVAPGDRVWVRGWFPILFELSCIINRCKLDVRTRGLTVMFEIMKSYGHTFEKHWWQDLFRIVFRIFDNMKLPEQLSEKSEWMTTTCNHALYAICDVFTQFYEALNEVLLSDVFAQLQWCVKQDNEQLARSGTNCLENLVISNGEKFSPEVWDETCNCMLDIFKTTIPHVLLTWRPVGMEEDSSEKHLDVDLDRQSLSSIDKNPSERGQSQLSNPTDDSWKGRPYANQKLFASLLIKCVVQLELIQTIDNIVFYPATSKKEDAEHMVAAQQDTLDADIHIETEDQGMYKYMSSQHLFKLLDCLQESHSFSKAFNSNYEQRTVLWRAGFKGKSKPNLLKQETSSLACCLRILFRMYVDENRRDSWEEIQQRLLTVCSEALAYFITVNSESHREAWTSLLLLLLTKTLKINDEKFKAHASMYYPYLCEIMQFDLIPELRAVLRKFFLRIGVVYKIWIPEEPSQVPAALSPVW
UniProt Q8N2F6: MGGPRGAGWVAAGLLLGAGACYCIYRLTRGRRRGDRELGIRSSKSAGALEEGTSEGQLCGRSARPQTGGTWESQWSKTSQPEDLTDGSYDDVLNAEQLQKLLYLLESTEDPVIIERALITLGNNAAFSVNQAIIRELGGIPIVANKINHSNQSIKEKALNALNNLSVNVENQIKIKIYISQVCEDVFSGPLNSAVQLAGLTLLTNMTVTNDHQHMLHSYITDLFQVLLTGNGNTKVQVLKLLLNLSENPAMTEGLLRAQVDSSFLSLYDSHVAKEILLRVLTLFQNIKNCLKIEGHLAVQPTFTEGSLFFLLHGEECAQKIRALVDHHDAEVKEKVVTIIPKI
UniProt Q15041, whole entry, looked up: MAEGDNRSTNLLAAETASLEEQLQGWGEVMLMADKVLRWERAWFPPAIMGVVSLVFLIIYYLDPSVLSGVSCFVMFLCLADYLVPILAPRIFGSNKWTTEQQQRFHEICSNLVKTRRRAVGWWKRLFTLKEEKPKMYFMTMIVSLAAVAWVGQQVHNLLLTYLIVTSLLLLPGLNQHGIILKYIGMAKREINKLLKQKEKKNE
UniProt Q9UH62: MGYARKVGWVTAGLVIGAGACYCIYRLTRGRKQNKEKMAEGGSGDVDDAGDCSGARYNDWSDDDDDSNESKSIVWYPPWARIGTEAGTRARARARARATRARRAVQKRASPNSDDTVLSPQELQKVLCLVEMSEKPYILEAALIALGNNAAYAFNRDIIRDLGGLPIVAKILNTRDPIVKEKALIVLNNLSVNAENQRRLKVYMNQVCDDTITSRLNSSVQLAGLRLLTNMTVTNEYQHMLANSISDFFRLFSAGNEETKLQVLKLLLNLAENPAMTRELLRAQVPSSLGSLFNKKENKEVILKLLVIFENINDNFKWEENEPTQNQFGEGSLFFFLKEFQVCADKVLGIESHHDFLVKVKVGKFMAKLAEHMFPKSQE
UniProt P84085: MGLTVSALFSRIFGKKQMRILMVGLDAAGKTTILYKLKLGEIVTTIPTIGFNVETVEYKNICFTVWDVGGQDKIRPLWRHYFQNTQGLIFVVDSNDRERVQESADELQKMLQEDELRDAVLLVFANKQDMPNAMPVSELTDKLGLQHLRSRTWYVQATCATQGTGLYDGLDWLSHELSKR
UniProt Q92625, 142-166: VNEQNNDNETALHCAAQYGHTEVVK
UniProt P63010: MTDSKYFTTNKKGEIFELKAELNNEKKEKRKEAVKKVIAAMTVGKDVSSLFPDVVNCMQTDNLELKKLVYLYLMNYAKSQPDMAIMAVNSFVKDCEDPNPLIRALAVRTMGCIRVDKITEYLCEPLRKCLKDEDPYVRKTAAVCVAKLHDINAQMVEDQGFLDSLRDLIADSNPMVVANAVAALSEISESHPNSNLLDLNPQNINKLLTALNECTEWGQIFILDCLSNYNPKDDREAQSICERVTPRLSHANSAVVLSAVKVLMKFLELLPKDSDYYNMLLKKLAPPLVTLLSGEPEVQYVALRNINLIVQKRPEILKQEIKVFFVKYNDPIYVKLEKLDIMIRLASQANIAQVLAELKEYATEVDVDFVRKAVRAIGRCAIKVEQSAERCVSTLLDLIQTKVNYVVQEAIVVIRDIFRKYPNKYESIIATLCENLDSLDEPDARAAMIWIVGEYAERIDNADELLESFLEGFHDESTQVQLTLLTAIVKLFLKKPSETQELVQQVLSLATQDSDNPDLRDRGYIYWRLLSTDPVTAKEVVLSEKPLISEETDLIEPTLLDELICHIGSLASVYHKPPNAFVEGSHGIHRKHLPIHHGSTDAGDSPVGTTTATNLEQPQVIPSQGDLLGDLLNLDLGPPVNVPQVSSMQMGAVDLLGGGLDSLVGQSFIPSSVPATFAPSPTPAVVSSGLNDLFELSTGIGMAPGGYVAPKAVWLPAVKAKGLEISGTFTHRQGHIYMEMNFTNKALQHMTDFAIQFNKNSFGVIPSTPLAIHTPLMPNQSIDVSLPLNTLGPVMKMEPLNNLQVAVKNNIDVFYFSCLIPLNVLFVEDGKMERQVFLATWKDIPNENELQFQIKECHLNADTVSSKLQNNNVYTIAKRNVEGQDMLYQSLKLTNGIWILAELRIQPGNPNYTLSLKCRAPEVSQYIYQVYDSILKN
UniProt Q68CP9, whole entry, looked up: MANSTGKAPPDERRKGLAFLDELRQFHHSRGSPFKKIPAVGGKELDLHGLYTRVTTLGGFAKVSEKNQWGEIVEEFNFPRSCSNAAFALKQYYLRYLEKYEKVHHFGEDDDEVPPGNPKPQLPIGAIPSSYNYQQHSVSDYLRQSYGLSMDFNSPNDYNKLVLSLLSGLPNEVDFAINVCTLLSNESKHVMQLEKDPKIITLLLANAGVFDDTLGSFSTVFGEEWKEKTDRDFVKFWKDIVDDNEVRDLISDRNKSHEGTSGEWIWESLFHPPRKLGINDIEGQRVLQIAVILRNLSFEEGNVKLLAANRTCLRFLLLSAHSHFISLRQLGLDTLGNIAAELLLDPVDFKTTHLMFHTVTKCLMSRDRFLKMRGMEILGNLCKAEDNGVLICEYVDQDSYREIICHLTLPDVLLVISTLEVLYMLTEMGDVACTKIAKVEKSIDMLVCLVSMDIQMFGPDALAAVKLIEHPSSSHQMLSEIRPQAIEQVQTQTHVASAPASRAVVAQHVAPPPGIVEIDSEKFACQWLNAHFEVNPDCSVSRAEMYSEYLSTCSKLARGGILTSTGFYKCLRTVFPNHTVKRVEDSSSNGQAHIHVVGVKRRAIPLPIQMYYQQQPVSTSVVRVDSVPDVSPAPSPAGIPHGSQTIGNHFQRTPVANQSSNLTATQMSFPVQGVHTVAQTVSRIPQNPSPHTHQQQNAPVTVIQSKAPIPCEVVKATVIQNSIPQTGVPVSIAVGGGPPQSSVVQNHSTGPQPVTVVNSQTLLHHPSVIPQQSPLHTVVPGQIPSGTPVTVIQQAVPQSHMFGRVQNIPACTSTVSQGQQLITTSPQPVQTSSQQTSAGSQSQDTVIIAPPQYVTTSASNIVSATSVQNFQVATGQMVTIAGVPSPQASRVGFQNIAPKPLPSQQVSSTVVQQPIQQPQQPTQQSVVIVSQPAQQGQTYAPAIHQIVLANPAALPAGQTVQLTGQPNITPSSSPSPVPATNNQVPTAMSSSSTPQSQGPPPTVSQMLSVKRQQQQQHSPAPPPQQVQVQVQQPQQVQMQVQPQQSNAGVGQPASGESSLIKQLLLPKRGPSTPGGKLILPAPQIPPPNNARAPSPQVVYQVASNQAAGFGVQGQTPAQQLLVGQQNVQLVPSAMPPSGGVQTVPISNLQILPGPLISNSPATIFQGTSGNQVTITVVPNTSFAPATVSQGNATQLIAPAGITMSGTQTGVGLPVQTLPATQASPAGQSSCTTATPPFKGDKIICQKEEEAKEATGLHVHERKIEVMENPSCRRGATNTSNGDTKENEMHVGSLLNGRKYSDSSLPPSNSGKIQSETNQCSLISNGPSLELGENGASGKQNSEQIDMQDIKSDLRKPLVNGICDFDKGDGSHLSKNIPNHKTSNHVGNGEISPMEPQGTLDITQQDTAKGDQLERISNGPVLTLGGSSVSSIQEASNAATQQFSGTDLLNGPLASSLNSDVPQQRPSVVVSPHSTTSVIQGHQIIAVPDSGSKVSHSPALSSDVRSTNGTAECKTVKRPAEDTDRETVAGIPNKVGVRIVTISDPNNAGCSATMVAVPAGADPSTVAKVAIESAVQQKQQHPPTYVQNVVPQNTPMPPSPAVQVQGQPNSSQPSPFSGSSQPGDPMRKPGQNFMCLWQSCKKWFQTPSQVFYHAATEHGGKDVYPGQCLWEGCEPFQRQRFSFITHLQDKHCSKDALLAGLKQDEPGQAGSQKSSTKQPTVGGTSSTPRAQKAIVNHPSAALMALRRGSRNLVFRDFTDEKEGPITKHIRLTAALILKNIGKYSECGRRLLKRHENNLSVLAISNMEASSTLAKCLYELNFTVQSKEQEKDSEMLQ
UniProt Q8IV38: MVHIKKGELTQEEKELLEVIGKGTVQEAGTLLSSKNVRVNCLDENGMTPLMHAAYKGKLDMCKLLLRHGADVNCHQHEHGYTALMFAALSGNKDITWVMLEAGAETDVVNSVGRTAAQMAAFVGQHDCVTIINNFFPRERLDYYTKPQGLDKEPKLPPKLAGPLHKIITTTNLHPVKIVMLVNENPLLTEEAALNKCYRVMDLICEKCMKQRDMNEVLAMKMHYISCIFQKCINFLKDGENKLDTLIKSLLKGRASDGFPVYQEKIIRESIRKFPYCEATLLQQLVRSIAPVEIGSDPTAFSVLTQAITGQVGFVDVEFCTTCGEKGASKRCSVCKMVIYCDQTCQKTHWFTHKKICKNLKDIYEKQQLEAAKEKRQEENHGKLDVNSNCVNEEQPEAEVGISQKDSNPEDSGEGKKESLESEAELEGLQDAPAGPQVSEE
UniProt Q66PJ3: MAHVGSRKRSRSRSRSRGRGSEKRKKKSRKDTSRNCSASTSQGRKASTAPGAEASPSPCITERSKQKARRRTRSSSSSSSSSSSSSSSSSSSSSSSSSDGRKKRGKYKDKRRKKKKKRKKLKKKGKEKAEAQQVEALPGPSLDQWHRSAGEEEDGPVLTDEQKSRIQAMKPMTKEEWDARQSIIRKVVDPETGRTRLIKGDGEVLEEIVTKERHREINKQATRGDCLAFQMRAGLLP

| Target | log2 mean competition ratio |
| --- | --- |
| ARHGAP11A C451 (UniProt Q6P4F7) | 0.375 |
| ASCC3 C310 (UniProt Q8N3C0) | 0.0529 |
| AP3D1 C39 (UniProt O14617) | -0.633 |
| ARFGEF2 C1617 (UniProt Q9Y6D5) | -0.712 |
| ARMC10 C59 (UniProt Q8N2F6) | -0.0739 |
| ARL6IP1 C109 (UniProt Q15041) | 0.0191 |
| ARMCX3 C208 (UniProt Q9UH62) | -0.11 |
| APBB1 C672 | 0.377 |
| ARF5 C62 (UniProt P84085) | 0.344 |
| ANKS1A C155 (UniProt Q92625) | -0.607 |
| APC C947 (UniProt P25054) | 0.332 |
| APLP2 C343 (UniProt Q06481) | -0.212 |
| ANKS6 C17 (UniProt Q68DC2) | -0.156 |
| ANXA2 C9 | -0.369 |
| AP2B1 C95 (UniProt P63010) | -0.0268 |
| ARHGEF6 C738 (UniProt Q15052) | -0.0881 |
| ARID2 C1271 (UniProt Q68CP9) | 0.237 |
| ANKMY2 C205 (UniProt Q8IV38) | 0.111 |
| ARL6IP4 C36 (UniProt Q66PJ3) | -0.0127 |
| ANXA11 C294 (UniProt P50995) | 0.0129 |

same assay, conditions: 200 µM; treatment time: 4 h; cell line lysate: HEK293T

| Target | log2 mean competition ratio |
| --- | --- |
| ARHGAP11A C451 (UniProt Q6P4F7) | 0.243 |
| ASCC3 C310 (UniProt Q8N3C0) | 0.28 |
| AP3D1 C39 (UniProt O14617) | -0.408 |
| ARFGEF2 C1617 (UniProt Q9Y6D5) | -0.15 |
| ARMC10 C59 (UniProt Q8N2F6) | 0.0419 |
| ARL6IP1 C109 (UniProt Q15041) | 0.0659 |
| ARMCX3 C208 (UniProt Q9UH62) | -0.0123 |
| APBB1 C672 | -0.0317 |
| ARF5 C62 (UniProt P84085) | -0.179 |
| ANKS1A C155 (UniProt Q92625) | -0.738 |
| APC C947 (UniProt P25054) | 0.177 |
| APLP2 C343 (UniProt Q06481) | -0.0862 |
| ANKS6 C17 (UniProt Q68DC2) | 0.0411 |
| ANXA2 C9 | 0.0771 |
| AP2B1 C95 (UniProt P63010) | 0.0933 |
| ARHGEF6 C738 (UniProt Q15052) | 0.34 |
| ARID2 C1271 (UniProt Q68CP9) | 0.219 |
| ANKMY2 C205 (UniProt Q8IV38) | 0.204 |
| ARL6IP4 C36 (UniProt Q66PJ3) | -0.142 |
| ANXA11 C294 (UniProt P50995) | -0.0299 |

— the supplement of paper PMC11732987, “Enantioselective OTUD7B fragment discovery through chemoproteomics screening and high-throughput optimisation” (Communications Chemistry, 2025)
